{"source": "patent US20260215432A1", "about": "“ANTIMICROBIAL CONJUGATED OLIGOELECTROLYTES AND METHODS THEREOF” (National University of Singapore, priority 2023, published 2026)", "data": [{"test_system": "A549 (lung epithelial cells)", "experiment": "Cytotoxicity against mammalian cell line", "type": "cell-based", "conditions": "IC50 (A549) divided by MIC towards MRSA", "experimental": "The cytotoxicity of the TPP COEs was also tested against a mammalian cell line (A549).", "values": [{"smiles": "C(=C\\c1ccc(OCCCC[P+](c2ccccc2)(c2ccccc2)c2ccccc2)cc1)/c1ccc(OCCCC[P+](c2ccccc2)(c2ccccc2)c2ccccc2)cc1.[I-].[I-]", "note": "[Compound D4P]", "Selectivity Index": 4.0}, {"smiles": "C(=C\\c1ccc(OCCCCCC[P+](c2ccccc2)(c2ccccc2)c2ccccc2)cc1)/c1ccc(OCCCCCC[P+](c2ccccc2)(c2ccccc2)c2ccccc2)cc1.[I-].[I-]", "note": "[Compound D6P]", "Selectivity Index": 6.5}, {"smiles": "COc1cc(/C=C/c2ccc(OCCCC[P+](c3ccccc3)(c3ccccc3)c3ccccc3)c(OC)c2)ccc1OCCCC[P+](c1ccccc1)(c1ccccc1)c1ccccc1.[I-].[I-]", "note": "[DM4P]", "Selectivity Index": 4.5}, {"smiles": "COc1cc(/C=C/c2ccc(OCCCCCC[P+](c3ccccc3)(c3ccccc3)c3ccccc3)c(OC)c2)ccc1OCCCCCC[P+](c1ccccc1)(c1ccccc1)c1ccccc1.[I-].[I-]", "note": "[DM6P]", "Selectivity Index": 11}, {"smiles": "COc1cc(/C=C/c2ccc(OCCCCCCCC[P+](c3ccccc3)(c3ccccc3)c3ccccc3)c(OC)c2)ccc1OCCCCCCCC[P+](c1ccccc1)(c1ccccc1)c1ccccc1.[I-].[I-]", "note": "[DM8P]", "Selectivity Index": 2.5}]}]}
